Consider 56 molecules from PubChem BioAssay AID1487 (National Center for Advancing Translational Sciences (NCATS), 2009).

Structures are written as SMILES. The list shows a part of the results. The main result of the screen is listed elsewhere. These columns were measured beside it and carry no call. Compounds called inactive in the main read-out are mostly missing here. Potencies come from curve fits of mixed quality, noted in brackets.

A short description of this test: qHTS Assay for Modulators of Lamin A Splicing. Conditions: HeLa LMNA splicing GFP/RFP minigene ratio, 48 h. Put shortly: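 Read-out is the ratio of GFP to DsRed2 object intensity, acquired by 488 nm laser-scanning cytometry on HeLa lamin A-EGFP minigene reporter cells. Compound incubation 48 hrs at 37 °C in Opti-MEM with 2% FBS; DMSO 0.5% final.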
(In qHTS, concentration-response curves come from the screen itself.)

Where [1] appears, read: measured here: GFP splicing reporter channel.
The mark [2] stands for this setting: measured here: RFP viability control channel.

Take `CCCC[C@H]1C(=O)N(c2ccccc2)N(c2ccc(O)cc2)C1=O`: the AC50 (in general, the concentration at which the activity in the assay is half-maximal) was 7.94 µM [falling, partial curve] under setting [1] and 5.01 µM [falling, partial curve] under setting [2].

Consider `O=C(COC(=O)c1ccc(O)cc1)Nc1ncc(Cl)cc1Cl`, for which, under setting [1], the AC50 is 0.0631 µM [rising, full curve, poor fit].

For the molecule `Cc1ccc(Cl)cc1N1CCN(C(=O)c2cccn3c(=O)c4cc(Cl)ccc4nc23)CC1`, the AC50 reads like this: under setting [1], 35.5 µM [falling, single point]; under setting [2], 22.4 µM [falling, partial curve, poor fit].

Regarding `COc1cc(NC(=O)c2cccs2)c(OC)cc1NC(=O)CCC(=O)Nc1ccc2ncccc2c1`, the AC50 is 6.31 µM [falling, partial curve, poor fit] under setting [1] and 17.8 µM [falling, partial curve, poor fit] under setting [2].

For the molecule `CCc1ccc(NC(=O)c2ccc(F)c(S(=O)(=O)N(C)C3CCCCC3)c2)cc1`, the concentration at half-maximal activity (AC50) under setting [2] was 0.0224 µM [rising, full curve, poor fit].

In the case of `NC(=O)COC(=O)/C=C/c1ccc(S(=O)(=O)N2CCCCCC2)cc1`, the half-maximal activity concentration (AC50) is, setting by setting: under setting [1], 2.24 µM [falling, partial curve]; under setting [2], 0.0562 µM [falling, full curve].

On to `COc1ccc(OC)c(N(CC(=O)NC2CC2)S(=O)(=O)c2ccc(C)cc2)c1`, for which the concentration at half-maximal activity (AC50) under setting [2] was 22.4 µM [rising, single point].

With `CC(/C=N/NC(=O)c1cc(-c2ccc3ccccc3c2)n[nH]1)=C\c1ccco1`, the AC50 under setting [2] is 28.2 µM [rising, single point].

On to `CCc1nc2ccccc2n(CC)c1=O`, for which the AC50 under setting [2] was 5.62 µM [rising, single point].

`O=C1CN(C(=O)/C=C/c2ccccc2F)c2ccccc2N1`: the AC50 is 5.62 µM [rising, single point] under setting [1] and 5.62 µM [rising, single point] under setting [2].

`COc1ccc2c(c1)CCc1c(C(=O)N(C)c3ccccc3)noc1-2`: the AC50 under setting [2] is 0.00316 µM [falling, full curve, poor fit].

For the molecule `COc1cccc(C=NCCNC(=O)c2nonc2N)c1O`, under setting [1], the AC50 is 35.5 µM [rising, single point].

Regarding `Cc1cccc(C)c1-n1c(SCC(=O)Nc2ccc(C(=O)O)cc2)nnc1-c1cccc(S(=O)(=O)N(C)C)c1`, the AC50 is, setting by setting: under setting [1], 0.01 µM [falling, full curve, poor fit]; under setting [2], 0.447 µM [falling, partial curve, poor fit].

For `O=C(Nc1ccc2ccccc2c1)c1ccc(NS(=O)(=O)c2ccc(Br)s2)cc1`, the AC50 under setting [2] is 35.5 µM [falling, single point].

Consider `Cc1ccc(Cl)cc1-n1ncc2c(NCCCn3ccnc3)ncnc21`, for which the AC50 under setting [1] is 0.1 µM [falling, full curve, poor fit].

Consider `COc1cc(/C=N\n2nnnc2N)ccc1OCc1ccc(F)cc1`, for which the concentration at half-maximal activity (AC50) under setting [2] was 0.141 µM [falling, full curve, poor fit].

As for `CCOc1ccc(Cc2nnc(SCC(=O)c3ccc(OC)cc3)o2)cc1`, the AC50 under setting [2] is 14.1 µM [rising, partial curve].

For `CCC[C@H]1C(=O)N2C(N(C)C)=Nc3ccc(C)cc3N2C1=O`, the AC50 was 0.00141 µM [falling, full curve, poor fit] under setting [1] and 14.1 µM [falling, single point] under setting [2].

`CCc1cccc(NC(=O)c2cnc(SC)nc2-c2ccccc2)c1`: the AC50 under setting [1] is 35.5 µM [falling, single point].

As for `CC(C)(C)C1CCc2c(sc(NC(=O)C3CC=CCC3C(=O)O)c2C#N)C1` (stereo unspecified), the AC50 was 14.1 µM [rising, single point] under setting [1] and 1 µM [rising, full curve, poor fit] under setting [2].

As to `N#CC1=C(N)Oc2nc(-c3ccccc3)[nH]c2C1c1cccnc1` (stereo unspecified), the AC50 under setting [2] is 35.5 µM [falling, single point].

For the molecule `CCC1=NN(C(=O)c2ccccc2Br)C(O)(c2ccc(Br)cc2)C1` (stereo unspecified), the AC50 under setting [2] is 1.26 µM [rising, full curve, poor fit].

Turning to `COCCCn1c(SCCc2ccccc2)nc2cc(OC)c(OC)cc2c1=N`, the AC50 by setting is: under setting [1], 31.6 µM [falling, partial curve, poor fit]; under setting [2], 22.4 µM [falling, single point].

`Cc1ccc(C(=O)OCC(=O)Nc2ccccc2Sc2ccccc2)cc1C`: under setting [1], the AC50 is 22.4 µM [rising, partial curve, poor fit].

Take `N#Cc1ccc(C(=O)Nc2ccn(-c3ccccc3)n2)cc1`: the AC50 runs as follows: under setting [1], 20 µM [rising, partial curve]; under setting [2], 35.5 µM [rising, single point].

For the molecule `CCCCNS(=O)(=O)c1ccc(NC(=O)C(Sc2ccccc2)c2ccccc2)cc1` (stereo unspecified), the AC50 under setting [2] is 20 µM [rising, single point].

With `COCCn1c(SCCOc2ccccc2)nc2ccccc2c1=O`, the AC50 under setting [1] is 5.62 µM [falling, partial curve].

Turning to `COc1ccc(C2C=C(C34CC5CC(CC(C5)C3)C4)NC(=S)N2)cc1` (stereo unspecified), under setting [2], the AC50 was 15.8 µM [rising, partial curve].

In the case of `CN(C)CCC(=O)c1ccc2c(c1)OCO2`, the AC50 under setting [2] is 4.47 µM [rising, single point].

In the case of `CS(=O)(=O)c1ccccc1-c1nc(-c2ccc([N+](=O)[O-])cc2)no1`, under setting [2], the AC50 was 3.98 µM [falling, full curve, poor fit].

As to `CCN(Cc1ccccc1)C(=O)CCCOc1ccccc1`, the AC50 by setting is: under setting [1], 14.1 µM [rising, single point]; under setting [2], 17.8 µM [rising, single point].

As to `CCC(=O)Nc1ccc(C(=O)CSc2nc3ccc(C)cc3[nH]2)cc1`, the AC50 under setting [1] is 3.16 µM [falling, full curve] and the AC50 under setting [2] was 4.47 µM [falling, full curve, poor fit].

Regarding `CC(C)(C)c1csc(NC(=O)CSc2nc3ccccc3c(=O)[nH]2)n1`, the AC50 under setting [2] is 8.91 µM [rising, partial curve].

`Cc1ccc2[nH]cc(C(=O)CCl)c2c1`: the AC50 under setting [2] was 5.01 µM [rising, single point].

As to `CN(C)C(C(=O)Nc1cc(Cl)cc(Cl)c1)c1ccccc1` (stereo unspecified), the AC50 under setting [1] is 6.31 µM [rising, partial curve, poor fit].

On to `Cc1ccc(C(=O)NN(C)c2nc3ccccc3nc2C(F)(F)F)cc1`, for which the concentration at half-maximal activity (AC50) under setting [2] was 2.82 µM [rising, full curve].

Consider `CC(=O)CC(=O)Nc1ncccn1`, for which the AC50 by setting is: under setting [1], 7.08 µM [falling, partial curve, poor fit]; under setting [2], 0.794 µM [falling, full curve, poor fit].

Regarding `CCCOc1ccc(C2c3c(oc4cc(C)c(C)cc4c3=O)C(=O)N2CCCN(C)C)cc1` (stereo unspecified), the AC50 under setting [2] is 25.1 µM [rising, single point].

`CCN(Cc1ccccc1)C(c1cccc(C#N)c1)c1nnnn1C(C)(C)C` (stereo unspecified): the AC50 under setting [2] was 17.8 µM [rising, single point].

Take `O=C(Nc1ccc(F)cc1F)NC1CCN(S(=O)(=O)c2ccc(F)cc2)CC1`: the concentration at half-maximal activity (AC50) under setting [2] was 1.12 µM [falling, full curve, poor fit].

As for `CC1CCN(S(=O)(=O)c2ccc(S(=O)(=O)N3CCN4CCCC4C3)cc2)CC1` (stereo unspecified), the AC50 under setting [2] is 0.1 µM [falling, single point].

As for `CC[N+]1(C)CC2CCC(C)(C1)C2(C)C` (stereo unspecified), the AC50 under setting [2] was 50.1 µM [falling, partial curve, poor fit].

In the case of `CC(Oc1ccc(F)cc1)C(=O)Nc1cc(-c2ccc(F)c(F)c2)no1` (stereo unspecified), the AC50 under setting [1] is 20 µM [falling, single point].

For the molecule `Cc1ccc(S(=O)(=O)NCC2CCC(C(=O)N(C)Cc3ccccc3)CC2)cc1` (stereo unspecified), the AC50 under setting [1] is 35.5 µM [falling, single point].

As for `Cc1ccc(C2CC(c3ccc(Cl)cc3)=NNC2=O)cc1` (stereo unspecified), the half-maximal activity concentration (AC50) under setting [1] is 20 µM [rising, partial curve, poor fit] and the AC50 under setting [2] is 28.2 µM [rising, single point].

For the molecule `CN(C)C(C)(C)C#CCCCCC#CC(C)(C)N(C)C`, the half-maximal activity concentration (AC50) under setting [2] is 0.355 µM [rising, full curve, poor fit].

As to `S=C(Nc1ccccc1)Nc1nc2ccccc2n1CCOc1ccc(Cl)cc1`, the concentration at half-maximal activity (AC50) reads like this: under setting [1], 35.5 µM [falling, single point]; under setting [2], 35.5 µM [falling, single point].

For `Cc1cc(C)cc(NC(=O)CN(C)S(=O)(=O)c2ccc3[nH]c4c(c3c2)CCCC4)c1`, the AC50 by setting is: under setting [1], 0.0224 µM [rising, partial curve, poor fit]; under setting [2], 0.02 µM [rising, full curve, poor fit].

In the case of `CC(C)OCCCNC(=O)C1CCC(CNS(=O)(=O)c2ccc(Cl)cc2)CC1` (stereo unspecified), the AC50 reads like this: under setting [1], 35.5 µM [rising, single point]; under setting [2], 35.5 µM [rising, single point].

With `CCCc1nc2ccccc2c(=O)n1/N=C/c1c(C)[nH]n(-c2ccc(C)cc2)c1=O`, the AC50 under setting [2] was 15.8 µM [rising, partial curve].

`Cc1ccccc1OCC(=O)N/N=C1\SCC(=O)N1Cc1ccccc1`: the half-maximal activity concentration (AC50) under setting [2] was 12.6 µM [rising, partial curve].

Regarding `COc1cc(/C=C(/C#N)c2ccc(C)cc2)ccc1Oc1ccc([N+](=O)[O-])cn1`, under setting [2], the AC50 was 15.8 µM [rising, single point].

For the molecule `COc1ccc(NS(=O)(=O)c2cc(NC(=O)c3ccco3)ccc2N2CCCC2)cc1`, the AC50 under setting [2] is 35.5 µM [rising, single point].

For the molecule `Cc1ccc(NC(=O)C2CCCN(S(=O)(=O)c3c(C)noc3C)C2)cc1F` (stereo unspecified), the AC50 under setting [1] was 31.6 µM [rising, single point] and the AC50 under setting [2] is 31.6 µM [rising, single point].

For the molecule `CN(C)c1cc2c(Nc3ccc4c(cnn4Cc4ccccc4)c3)ncnc2cn1`, the AC50 was 0.00355 µM [falling, full curve, poor fit] under setting [1] and 0.00447 µM [falling, full curve, poor fit] under setting [2].

Turning to `Cc1ccc(-c2nc(-c3cccnc3)sc2CC(=O)Nc2ccc(C)c(Cl)c2)cc1`, the AC50 by setting is: under setting [1], 14.1 µM [rising, single point]; under setting [2], 22.4 µM [rising, single point].
